The results in this text go back to PMC7363849.

By UniProt entry, the sequences of proteins in these tests, tags left out.
UniProt Q9UNI6: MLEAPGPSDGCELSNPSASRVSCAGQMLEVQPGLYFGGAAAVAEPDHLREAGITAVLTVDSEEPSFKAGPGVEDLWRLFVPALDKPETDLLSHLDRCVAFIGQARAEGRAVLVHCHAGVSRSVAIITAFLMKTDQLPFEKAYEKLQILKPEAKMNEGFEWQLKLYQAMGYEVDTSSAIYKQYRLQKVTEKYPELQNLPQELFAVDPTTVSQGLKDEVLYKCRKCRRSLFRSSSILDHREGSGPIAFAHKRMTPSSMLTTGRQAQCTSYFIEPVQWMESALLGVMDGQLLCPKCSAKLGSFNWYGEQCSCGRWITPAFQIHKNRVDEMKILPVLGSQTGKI

Results are given in words; binding and its absence hold for the method and conditions named. Binding seen in cells or lysates may run through a third protein. Here binding means that the protein was enriched with, or labelled near, the bait; the list need not be complete. Tags and fused reporters may be left off the sequences shown.

In this test the target is T1, NMD3-tev-3XFLAG (human) (UniProt Q96D46).
T1 sequence: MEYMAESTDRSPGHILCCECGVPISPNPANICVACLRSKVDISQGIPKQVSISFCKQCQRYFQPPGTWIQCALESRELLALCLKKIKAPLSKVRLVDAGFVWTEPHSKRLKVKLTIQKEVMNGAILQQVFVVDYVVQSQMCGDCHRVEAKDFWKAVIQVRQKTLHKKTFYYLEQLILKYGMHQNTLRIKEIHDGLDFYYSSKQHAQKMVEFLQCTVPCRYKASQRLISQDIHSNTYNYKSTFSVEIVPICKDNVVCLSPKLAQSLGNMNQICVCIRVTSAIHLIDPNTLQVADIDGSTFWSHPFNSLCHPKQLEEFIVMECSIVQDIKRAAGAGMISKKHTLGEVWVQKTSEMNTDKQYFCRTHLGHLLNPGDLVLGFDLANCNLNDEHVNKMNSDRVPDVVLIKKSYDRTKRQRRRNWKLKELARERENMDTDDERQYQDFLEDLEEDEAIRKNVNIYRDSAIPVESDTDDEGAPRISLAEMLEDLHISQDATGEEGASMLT
Briefly: affinity purification with mass spectrometry; bait NMD3-tev-3XFLAG from HEK293 cells, anti-FLAG agarose; LC-MS/MS of the purified pre-60S sample searched against a human proteome database (pFind3).

As for DUSP12 (from UniProt Q9UNI6 1-340), the binding entry is given as “binds”.
